Measured values reported in publication PMC4307248.
Results are given in words; binding and its absence hold for the method and conditions named. In cells and extracts the contact can be indirect. Some results given as binding are weak or reduced against the parent protein; the word gives no strength. For some of these results: Tags and fused reporters may be left off the sequences shown.

Tests used:
[1] = biological target: T1, Flag-tagged USP22 (ubiquitin-specific protease 22) (human) (UniProt Q9UPT9); assay: co-IP; A549-USP22 cell lysates immunoprecipitated with anti-Flag or anti-MDMX antibody; immunoblot with anti-Flag, anti-MDMX, anti-USP22; isotype control antibody and PBS as controls
T1 sequence: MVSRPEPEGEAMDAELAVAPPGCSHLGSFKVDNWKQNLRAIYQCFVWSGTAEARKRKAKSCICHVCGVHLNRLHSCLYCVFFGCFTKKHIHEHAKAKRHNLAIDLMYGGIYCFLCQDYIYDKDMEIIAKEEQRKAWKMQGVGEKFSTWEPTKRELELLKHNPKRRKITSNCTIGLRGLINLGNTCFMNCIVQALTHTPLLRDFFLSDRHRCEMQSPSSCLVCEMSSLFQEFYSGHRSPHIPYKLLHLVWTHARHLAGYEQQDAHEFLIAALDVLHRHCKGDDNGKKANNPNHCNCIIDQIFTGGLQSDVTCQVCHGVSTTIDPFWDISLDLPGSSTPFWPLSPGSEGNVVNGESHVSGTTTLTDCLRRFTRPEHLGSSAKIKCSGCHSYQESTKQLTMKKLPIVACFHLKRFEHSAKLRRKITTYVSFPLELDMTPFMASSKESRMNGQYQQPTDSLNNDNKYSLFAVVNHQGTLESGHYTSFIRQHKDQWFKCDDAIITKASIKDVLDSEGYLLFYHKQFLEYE

[2] = biological target: T2, MDMX, endogenous in A549-USP22 cells (human (endogenous in A549)) (UniProt O15151); assay: as above
T2 sequence: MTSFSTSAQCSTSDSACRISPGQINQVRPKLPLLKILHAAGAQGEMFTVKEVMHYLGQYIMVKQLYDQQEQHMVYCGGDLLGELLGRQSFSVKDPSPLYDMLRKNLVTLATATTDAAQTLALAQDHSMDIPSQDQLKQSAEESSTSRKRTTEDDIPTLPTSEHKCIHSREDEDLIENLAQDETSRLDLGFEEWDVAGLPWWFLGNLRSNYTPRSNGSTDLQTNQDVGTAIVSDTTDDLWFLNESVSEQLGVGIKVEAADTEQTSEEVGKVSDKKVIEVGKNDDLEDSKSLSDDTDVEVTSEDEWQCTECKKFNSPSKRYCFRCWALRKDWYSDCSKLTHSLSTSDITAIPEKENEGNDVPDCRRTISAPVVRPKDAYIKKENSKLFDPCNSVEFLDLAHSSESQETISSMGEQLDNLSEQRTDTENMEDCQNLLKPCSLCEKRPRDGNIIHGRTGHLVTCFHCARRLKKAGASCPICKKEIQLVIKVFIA

[3] = biological target: T3, USP22 (ubiquitin-specific protease 22), endogenous in NCl-H460 cells (human (endogenous in NCl-H460)) (UniProt Q9UPT9); assay: co-IP; NCl-H460 cell lysates immunoprecipitated with anti-USP22 or anti-MDMX antibody; immunoblot; isotype control antibody and PBS as controls
T3 sequence: T1 sequence

[4] = biological target: T4, MDMX, endogenous in NCl-H460 cells (human (endogenous in NCl-H460)) (UniProt O15151); assay: as above
T4 sequence: T2 sequence

B1: MDMX, endogenous in A549-USP22 cells (protein, UniProt O15151 1-490)
chain: T2 sequence
binding [1]: binds

B2: Flag-tagged USP22 (ubiquitin-specific protease 22) (enzyme, UniProt Q9UPT9 1-525)
chain: T1 sequence
binding [2]: binds

B3: MDMX, endogenous in NCl-H460 cells (protein, UniProt O15151 1-490)
chain: T2 sequence
binding [3]: binds

B4: USP22 (ubiquitin-specific protease 22), endogenous in NCl-H460 cells (enzyme, UniProt Q9UPT9 1-525)
chain: T1 sequence
binding [4]: binds
